For 39 compounds, AC50 and max response results are on record in PubChem BioAssay (NCATS).

Values joined by “and” are separate entries in the source; they are usually repeats but may differ in a detail not shown here. Identical values can stand only once. This is one part of the list. The main result of the screen is listed elsewhere. These columns were measured beside it and carry no call. The list favours compounds with an active or inconclusive main result. For some of these results: The note in brackets gives the kind of curve behind each potency; many fits are weak.

One experiment is described as follows: qHTS assay for small molecule antagonists of peroxisome proliferator-activated receptor gamma signaling (AID 588537). The conditions noted are these: HEK293 PPARg-UAS-bla, beta-lactamase ratio, antagonist mode; measured here: W460 blue channel. The procedure, abridged: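 Inhibitors of agonist-stimulated UAS-bla reporter activity were sought in HEK293 cells; rosiglitazone (50 nM) defined full signal and DMSO baseline. Curves fitted to Hill model gave IC50 and efficacy.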
What is called AC50 is the concentration at which the activity in the assay is half-maximal. In the case of `O=C(O)C(F)(F)C(F)(F)C(F)(F)C(F)(F)C(F)(F)C(F)(F)C(F)(F)C(F)(F)C(F)(F)F`, the half-maximal activity concentration (AC50) is 22.4 µM [falling, partial curve, poor fit].
Take `CCOCN(C(=O)CCl)c1c(C)cccc1CC`: the AC50 was 20 µM [falling, partial curve, poor fit].
Consider `COP(=S)(OC)Oc1ccc(Sc2ccc(OP(=S)(OC)OC)cc2)cc1`, for which the concentration at half-maximal activity (AC50) is 35.5 µM [falling, partial curve, poor fit].
Same read-out and setting: with `O=[N+]([O-])c1ccc(Nc2ccccc2)cc1` the figure was 35.5 µM [falling, partial curve, poor fit]; with `CC(C)N(C(=O)COc1nnc(C(F)(F)F)s1)c1ccc(F)cc1`, 39.8 µM [falling, partial curve, poor fit].

The next experiment can be described thus: qHTS assay for small molecule agonists of retinoid X receptor alpha signaling (AID 588544). Particulars: HEK293T RXRa-UAS-bla, beta-lactamase reporter, 18 h; 530 nm emission. A general note: In qHTS, concentration-response curves come from the screen itself.
`Cc1cc(Cl)ccc1OCC(=O)O`: the max response was 18.3%.
Take `CC(C)(COCC1CO1)COCC1CO1` (stereo not given): the max response was determined as 39.9%.
`CC(=O)NNc1ccccc1`: the max response came to 10.2%.
On the same count and under the same terms, the value for `Oc1cc(Cl)c(Cl)cc1Cl` was -14%.
In the case of `ClC=C(Cl)Cl`, the max response is -15.3%.
Take `CCOP(=S)(OCC)SCCl`: the max response turned out to be 9.99%.
Same read-out and setting: the value for `CC(C)(C)C(O)C(Oc1ccc(-c2ccccc2)cc1)n1cncn1` (stereo not given) was 38%; that for `CCCN(CCC)c1c([N+](=O)[O-])cc(C(F)(F)F)c(N)c1[N+](=O)[O-]` was 5.14%.
For the compound `CS/C(C)=N/OC(=O)N(C)SN(C)C(=O)O/N=C(\C)SC`, the max response was determined as 43%.
`CCCN(CCOc1c(Cl)cc(Cl)cc1Cl)C(=O)n1ccnc1`: the max response was 17.3% and 17.4%.
Same read-out and setting: with `c1ccc(N=NNc2ccccc2)cc1` the figure was 6.83%.
Turning to `CCC[CH2][Sn]([CH2]CCC)([CH2]CCC)[O]C(=O)c1ccccc1`, the max response is -51.6%.
For the compound `Oc1ccc(C(c2ccc(O)cc2)(C(F)(F)F)C(F)(F)F)cc1`, the max response was found to be 3.87%.
In the case of `Nc1ccc(-c2ccc(N)c(Cl)c2)cc1Cl`, the max response is 7.36% and 16.6%.
As to `Nc1ccc(Cc2ccc(N)c(Cl)c2)cc1Cl`, the max response was determined as 1.97%.
`O=P(OCC(Br)CBr)(OCC(Br)CBr)OCC(Br)CBr` (stereo not given): the max response was -21.8%.
Still for that read-out and setting: the value for `CCC(C)(NC(=O)c1cc(Cl)c(C)c(Cl)c1)C(=O)CCl` (stereo not given) was 37%; that for `Clc1cc(Cl)c(-c2cc(Cl)c(Cl)cc2Cl)cc1Cl` was 9.66% and 21.1%.
Regarding `COC(=O)c1c(C(F)F)nc(C(F)(F)F)c(C2=NCCS2)c1CC(C)C`, the max response was 10.6%.
As to `CCOC(=O)C(C)OC(=O)c1cc(Oc2ccc(C(F)(F)F)cc2Cl)ccc1[N+](=O)[O-]` (stereo not given), the max response came out at 20.8%.
Consider `CC(C)=C[C@@H]1[C@@H](C(=O)OCN2C(=O)C3=C(CCCC3)C2=O)C1(C)C`, for which the max response turned out to be 8.21%.
As for `O=C(O)COc1ccccc1`, the max response is 41.2%.
With `CC(C)(c1ccc(O)cc1)c1ccc(O)cc1`, the max response turned out to be 10.2%.
As to `O=C(Nc1ccccc1)Nc1cnns1`, the max response was 8.63%.
On to `CCC(C)c1cc([N+](=O)[O-])cc([N+](=O)[O-])c1O` (stereo not given), for which the max response amounted to 8.87%.
Same read-out and setting: with `CCOCN(C(=O)CCl)c1c(C)cccc1CC` the figure was 40.6% and 39.9%.
Same read-out and setting: with `COP(=S)(OC)Oc1ccc(Sc2ccc(OP(=S)(OC)OC)cc2)cc1` the figure was 20.2%; with `O=[N+]([O-])c1ccc(Nc2ccccc2)cc1`, 10.9%.

A further experiment in a line: qHTS assay for small molecule antagonists of retinoid X receptor alpha signaling (AID 588546).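 Note: cells stimulated with 9-cis-retinoic acid as agonist; % is set by controls: 0 for no effect and ±100 for the full control effect.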 The conditions noted are these: HEK293T RXRa-UAS-bla, beta-lactamase ratio, antagonist mode; measured here: W530 green channel, cytotoxicity proxy. Put shortly: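 Beta-lactamase reporter inhibition, read as CCF4 fluorescence ratio (ex 405, em 460/530 nm) after 2 h at RT. HEK293T UAS-bla cells, 2500/well, were stimulated with 9-cis-RA at 500 or 100 nM final alongside test compound for 18 h at 37 C.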
Turning to `Oc1ccc(Cl)cc1Cc1ccccc1`, the max response is -13%.
`CCCSP(=O)(OCC)Oc1ccc(Br)cc1Cl` (stereo not given): the max response was -13%.
For the compound `O=C(O)C(Br)CBr` (stereo not given), the max response was -13.3%.
Regarding `CCOP(=S)(OCC)SCCl`, the max response was -14%.
On to `Oc1cc(Cl)cc(Cl)c1Cl`, for which the max response was found to be 5.3%.
Consider `CC(C)(C)C(O)C(Oc1ccc(-c2ccccc2)cc1)n1cncn1` (stereo not given), for which the max response was -0.123%.
Consider `O=C(O)c1cccc(Cl)c1`, for which the max response is -3.58%.
On the same count and under the same terms, the value for `CCCN(CCOc1c(Cl)cc(Cl)cc1Cl)C(=O)n1ccnc1` was -19.8% and -2.15%; that for `c1ccc(N=NNc2ccccc2)cc1` was -8.26%; that for `CCC[CH2][Sn]([CH2]CCC)([CH2]CCC)[O]C(=O)c1ccccc1` was -38.6%.
For the compound `Oc1ccc(C(c2ccc(O)cc2)(C(F)(F)F)C(F)(F)F)cc1`, the max response was -0.293%.
Take `CCCOCC(=Nc1ccc(Cl)cc1C(F)(F)F)n1ccnc1`: the max response is 3.36%.
Same read-out and setting: with `C1=CC2C3C=CC(C3)C2C1` (stereo not given) the figure was -3.91%.
`FC(F)(F)c1ccc(Cl)cc1`: the max response was -5.29%.
The same measure, in the same setting: with `O=P(OCC(Br)CBr)(OCC(Br)CBr)OCC(Br)CBr` (stereo not given) the figure was 17%; with `CCC(C)(NC(=O)c1cc(Cl)c(C)c(Cl)c1)C(=O)CCl` (stereo not given), 9.98%.
In the case of `Clc1cc(Cl)c(-c2cc(Cl)c(Cl)cc2Cl)cc1Cl`, the max response is 12.5%.
Consider `C=CC=O`, for which the max response was 8.98%.
Turning to `CCOC(=O)C(C)OC(=O)c1cc(Oc2ccc(C(F)(F)F)cc2Cl)ccc1[N+](=O)[O-]` (stereo not given), the max response stood at 6.04%.
Same read-out and setting: the value for `O=C(O)C(F)(F)C(F)(F)C(F)(F)C(F)(F)C(F)(F)C(F)(F)C(F)(F)C(F)(F)C(F)(F)F` was -14.4%.
For the compound `CCOCN(C(=O)CCl)c1c(C)cccc1CC`, the max response was 38.2% and 26.8%.
`CC(C)N(C(=O)COc1nnc(C(F)(F)F)s1)c1ccc(F)cc1`: the max response was 15.5%.
